Reference: the supplement of paper PMC10849652
The other results are listed elsewhere or left out.

Amino acid sequences for entries named in this document (tags omitted). A change or cut given only in a name is not applied to a line headed by its entry.
UniProt Q06187: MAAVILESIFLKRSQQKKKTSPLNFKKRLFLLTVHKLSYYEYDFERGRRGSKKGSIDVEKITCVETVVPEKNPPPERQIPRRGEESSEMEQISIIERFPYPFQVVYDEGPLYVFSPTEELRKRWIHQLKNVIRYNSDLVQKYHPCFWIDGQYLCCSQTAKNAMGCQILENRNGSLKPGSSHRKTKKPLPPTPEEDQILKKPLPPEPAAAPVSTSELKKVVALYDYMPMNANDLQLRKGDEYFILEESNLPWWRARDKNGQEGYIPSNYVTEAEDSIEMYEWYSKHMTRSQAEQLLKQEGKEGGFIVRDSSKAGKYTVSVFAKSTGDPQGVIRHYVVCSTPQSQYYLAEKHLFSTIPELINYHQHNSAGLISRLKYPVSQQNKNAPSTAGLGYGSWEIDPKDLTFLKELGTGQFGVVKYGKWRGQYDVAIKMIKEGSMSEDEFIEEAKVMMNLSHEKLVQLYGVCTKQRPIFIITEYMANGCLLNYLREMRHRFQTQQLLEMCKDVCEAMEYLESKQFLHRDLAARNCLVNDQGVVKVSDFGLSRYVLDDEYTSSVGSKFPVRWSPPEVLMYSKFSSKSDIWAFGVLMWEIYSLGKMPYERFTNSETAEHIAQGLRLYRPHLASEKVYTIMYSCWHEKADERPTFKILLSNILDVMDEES
UniProt P15056, whole entry, looked up: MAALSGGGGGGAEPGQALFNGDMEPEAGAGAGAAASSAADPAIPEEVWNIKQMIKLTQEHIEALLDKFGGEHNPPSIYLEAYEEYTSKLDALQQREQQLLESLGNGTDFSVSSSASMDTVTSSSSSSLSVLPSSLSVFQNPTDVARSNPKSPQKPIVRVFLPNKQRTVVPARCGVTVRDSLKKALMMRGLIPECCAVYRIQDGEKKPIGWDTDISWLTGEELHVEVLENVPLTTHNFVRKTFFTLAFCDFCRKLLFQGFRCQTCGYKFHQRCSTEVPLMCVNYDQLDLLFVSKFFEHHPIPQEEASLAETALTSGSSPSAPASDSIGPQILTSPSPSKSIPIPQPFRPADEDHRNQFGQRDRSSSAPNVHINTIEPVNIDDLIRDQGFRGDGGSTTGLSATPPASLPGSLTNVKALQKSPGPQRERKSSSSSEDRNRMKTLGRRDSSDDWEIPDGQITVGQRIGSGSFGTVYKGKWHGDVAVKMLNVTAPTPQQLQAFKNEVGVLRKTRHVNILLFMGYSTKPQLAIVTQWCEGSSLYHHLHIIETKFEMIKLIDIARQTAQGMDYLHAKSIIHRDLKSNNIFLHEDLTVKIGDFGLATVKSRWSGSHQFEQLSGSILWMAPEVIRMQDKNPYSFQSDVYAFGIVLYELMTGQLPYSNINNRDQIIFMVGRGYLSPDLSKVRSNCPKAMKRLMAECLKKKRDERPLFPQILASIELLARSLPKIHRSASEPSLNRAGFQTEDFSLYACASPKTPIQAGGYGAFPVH
UniProt Q9NSI6, whole entry, looked up: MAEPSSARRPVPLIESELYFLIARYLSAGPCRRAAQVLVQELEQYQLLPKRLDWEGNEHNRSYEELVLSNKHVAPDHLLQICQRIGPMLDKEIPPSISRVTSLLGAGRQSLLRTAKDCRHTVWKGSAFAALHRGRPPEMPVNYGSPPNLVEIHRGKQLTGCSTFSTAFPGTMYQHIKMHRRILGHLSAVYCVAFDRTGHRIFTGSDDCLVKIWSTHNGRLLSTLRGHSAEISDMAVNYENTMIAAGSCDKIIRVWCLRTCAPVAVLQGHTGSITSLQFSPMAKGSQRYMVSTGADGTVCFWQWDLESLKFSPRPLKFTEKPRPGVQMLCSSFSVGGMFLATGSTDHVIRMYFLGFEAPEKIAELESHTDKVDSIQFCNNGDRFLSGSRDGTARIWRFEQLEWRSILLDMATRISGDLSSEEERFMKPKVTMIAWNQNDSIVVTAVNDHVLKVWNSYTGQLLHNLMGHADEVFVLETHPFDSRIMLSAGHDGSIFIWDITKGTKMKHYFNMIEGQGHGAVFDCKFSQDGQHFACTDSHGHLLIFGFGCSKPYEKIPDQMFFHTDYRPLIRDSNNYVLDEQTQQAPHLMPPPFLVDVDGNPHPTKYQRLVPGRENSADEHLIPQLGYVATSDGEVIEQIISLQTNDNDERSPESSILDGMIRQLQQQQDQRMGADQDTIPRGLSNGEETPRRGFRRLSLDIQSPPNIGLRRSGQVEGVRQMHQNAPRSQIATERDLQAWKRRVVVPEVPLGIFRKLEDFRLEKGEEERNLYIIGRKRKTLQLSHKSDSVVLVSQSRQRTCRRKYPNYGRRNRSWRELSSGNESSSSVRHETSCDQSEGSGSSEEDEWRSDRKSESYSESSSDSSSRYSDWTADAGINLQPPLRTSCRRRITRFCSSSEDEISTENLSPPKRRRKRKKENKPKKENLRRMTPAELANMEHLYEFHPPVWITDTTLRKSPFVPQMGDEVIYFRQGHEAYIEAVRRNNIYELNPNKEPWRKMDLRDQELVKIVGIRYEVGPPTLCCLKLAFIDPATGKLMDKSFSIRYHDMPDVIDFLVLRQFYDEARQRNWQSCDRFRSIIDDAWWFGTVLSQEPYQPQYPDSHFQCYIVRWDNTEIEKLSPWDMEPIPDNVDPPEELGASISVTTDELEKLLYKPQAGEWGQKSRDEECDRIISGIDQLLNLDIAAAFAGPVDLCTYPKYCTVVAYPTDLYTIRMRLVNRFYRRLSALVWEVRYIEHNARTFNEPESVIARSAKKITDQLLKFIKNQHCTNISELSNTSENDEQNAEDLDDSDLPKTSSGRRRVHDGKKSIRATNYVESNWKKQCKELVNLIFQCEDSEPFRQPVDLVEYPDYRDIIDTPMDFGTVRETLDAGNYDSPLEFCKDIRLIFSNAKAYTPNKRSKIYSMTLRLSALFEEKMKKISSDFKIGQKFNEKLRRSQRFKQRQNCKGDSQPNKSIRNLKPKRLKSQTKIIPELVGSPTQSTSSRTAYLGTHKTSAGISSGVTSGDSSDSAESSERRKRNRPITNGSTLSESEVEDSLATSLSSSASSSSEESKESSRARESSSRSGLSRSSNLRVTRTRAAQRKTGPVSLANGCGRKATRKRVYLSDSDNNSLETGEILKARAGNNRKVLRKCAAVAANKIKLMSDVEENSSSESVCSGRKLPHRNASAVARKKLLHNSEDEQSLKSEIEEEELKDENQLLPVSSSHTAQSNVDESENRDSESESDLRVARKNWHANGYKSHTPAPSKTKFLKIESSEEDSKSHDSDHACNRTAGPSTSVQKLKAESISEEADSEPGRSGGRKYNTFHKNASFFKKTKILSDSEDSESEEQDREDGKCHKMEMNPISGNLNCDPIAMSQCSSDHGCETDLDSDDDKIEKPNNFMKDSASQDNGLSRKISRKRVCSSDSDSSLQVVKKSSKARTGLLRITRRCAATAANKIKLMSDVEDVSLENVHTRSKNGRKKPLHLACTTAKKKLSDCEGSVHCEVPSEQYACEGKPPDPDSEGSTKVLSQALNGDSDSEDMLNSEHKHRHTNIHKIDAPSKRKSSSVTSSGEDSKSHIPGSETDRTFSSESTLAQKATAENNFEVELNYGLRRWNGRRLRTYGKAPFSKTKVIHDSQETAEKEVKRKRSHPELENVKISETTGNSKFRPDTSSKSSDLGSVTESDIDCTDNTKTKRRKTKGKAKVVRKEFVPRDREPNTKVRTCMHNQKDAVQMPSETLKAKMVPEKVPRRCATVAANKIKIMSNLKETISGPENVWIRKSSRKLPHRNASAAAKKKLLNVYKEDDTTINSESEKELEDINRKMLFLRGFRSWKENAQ
UniProt Q8TDL5: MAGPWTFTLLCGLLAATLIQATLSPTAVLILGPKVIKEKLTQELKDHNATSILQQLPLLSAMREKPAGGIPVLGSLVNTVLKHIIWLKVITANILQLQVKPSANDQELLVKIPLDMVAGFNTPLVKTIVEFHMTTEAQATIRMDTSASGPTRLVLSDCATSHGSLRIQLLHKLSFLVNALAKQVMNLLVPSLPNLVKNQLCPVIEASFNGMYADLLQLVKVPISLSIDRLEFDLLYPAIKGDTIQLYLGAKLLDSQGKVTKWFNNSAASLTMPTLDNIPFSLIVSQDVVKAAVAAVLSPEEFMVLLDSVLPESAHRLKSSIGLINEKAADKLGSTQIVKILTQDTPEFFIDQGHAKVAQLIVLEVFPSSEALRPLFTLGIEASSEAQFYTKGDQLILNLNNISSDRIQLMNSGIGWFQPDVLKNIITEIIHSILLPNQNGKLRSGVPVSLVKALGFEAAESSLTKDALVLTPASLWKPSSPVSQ
UniProt Q9UIF9: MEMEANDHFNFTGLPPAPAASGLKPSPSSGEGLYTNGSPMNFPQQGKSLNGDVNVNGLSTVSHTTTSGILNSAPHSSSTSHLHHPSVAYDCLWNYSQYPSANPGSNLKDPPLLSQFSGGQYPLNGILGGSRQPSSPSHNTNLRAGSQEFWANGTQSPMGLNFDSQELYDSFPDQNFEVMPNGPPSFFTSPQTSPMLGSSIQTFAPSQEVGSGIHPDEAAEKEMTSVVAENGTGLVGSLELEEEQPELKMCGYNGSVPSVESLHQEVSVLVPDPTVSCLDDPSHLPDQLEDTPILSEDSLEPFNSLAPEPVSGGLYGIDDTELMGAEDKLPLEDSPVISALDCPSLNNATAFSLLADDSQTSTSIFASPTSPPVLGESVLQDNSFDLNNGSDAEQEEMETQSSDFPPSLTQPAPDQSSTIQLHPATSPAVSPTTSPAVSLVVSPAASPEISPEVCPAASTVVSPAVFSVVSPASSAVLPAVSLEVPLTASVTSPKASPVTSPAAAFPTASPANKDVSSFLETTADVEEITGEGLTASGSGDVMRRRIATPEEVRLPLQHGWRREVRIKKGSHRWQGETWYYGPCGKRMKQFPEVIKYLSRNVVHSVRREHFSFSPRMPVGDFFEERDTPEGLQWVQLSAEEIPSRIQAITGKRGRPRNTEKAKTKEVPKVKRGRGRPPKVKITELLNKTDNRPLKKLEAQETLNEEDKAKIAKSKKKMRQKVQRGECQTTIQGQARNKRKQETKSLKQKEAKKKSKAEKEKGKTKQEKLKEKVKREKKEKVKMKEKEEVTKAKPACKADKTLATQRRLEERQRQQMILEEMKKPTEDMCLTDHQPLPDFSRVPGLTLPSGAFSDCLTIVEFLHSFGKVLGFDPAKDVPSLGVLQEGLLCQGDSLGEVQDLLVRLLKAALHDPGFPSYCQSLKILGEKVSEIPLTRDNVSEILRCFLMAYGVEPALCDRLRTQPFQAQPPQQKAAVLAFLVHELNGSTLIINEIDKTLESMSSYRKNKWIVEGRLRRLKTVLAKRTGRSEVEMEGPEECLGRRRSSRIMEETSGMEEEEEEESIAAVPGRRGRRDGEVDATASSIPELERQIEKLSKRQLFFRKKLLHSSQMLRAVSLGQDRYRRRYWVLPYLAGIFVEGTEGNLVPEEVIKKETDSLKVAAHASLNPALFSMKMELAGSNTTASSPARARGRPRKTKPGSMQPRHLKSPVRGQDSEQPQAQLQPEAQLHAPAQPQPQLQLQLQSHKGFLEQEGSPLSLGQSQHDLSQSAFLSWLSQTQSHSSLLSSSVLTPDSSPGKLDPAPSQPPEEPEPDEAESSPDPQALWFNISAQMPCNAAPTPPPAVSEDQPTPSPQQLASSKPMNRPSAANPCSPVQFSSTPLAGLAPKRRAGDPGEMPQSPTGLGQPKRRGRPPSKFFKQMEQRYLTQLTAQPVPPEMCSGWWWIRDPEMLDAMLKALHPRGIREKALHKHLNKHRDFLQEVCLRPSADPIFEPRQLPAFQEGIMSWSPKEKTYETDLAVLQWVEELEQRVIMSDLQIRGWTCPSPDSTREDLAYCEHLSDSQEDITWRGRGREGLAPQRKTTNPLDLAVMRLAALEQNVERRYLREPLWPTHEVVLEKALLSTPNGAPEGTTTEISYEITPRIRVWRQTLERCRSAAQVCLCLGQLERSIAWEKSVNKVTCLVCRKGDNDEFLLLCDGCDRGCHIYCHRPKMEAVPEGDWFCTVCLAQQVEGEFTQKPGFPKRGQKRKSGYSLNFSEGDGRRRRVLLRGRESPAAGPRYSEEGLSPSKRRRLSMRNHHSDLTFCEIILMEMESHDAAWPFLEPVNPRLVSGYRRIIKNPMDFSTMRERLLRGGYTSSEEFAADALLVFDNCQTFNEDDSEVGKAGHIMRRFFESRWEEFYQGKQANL
UniProt Q9NQY0: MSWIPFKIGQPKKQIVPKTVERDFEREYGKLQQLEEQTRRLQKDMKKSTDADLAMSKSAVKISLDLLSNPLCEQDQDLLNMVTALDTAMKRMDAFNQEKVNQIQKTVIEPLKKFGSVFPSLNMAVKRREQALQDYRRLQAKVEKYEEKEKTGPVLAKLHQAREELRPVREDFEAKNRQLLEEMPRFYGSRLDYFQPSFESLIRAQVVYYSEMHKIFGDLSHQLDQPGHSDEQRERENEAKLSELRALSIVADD
UniProt O43521, whole entry, looked up: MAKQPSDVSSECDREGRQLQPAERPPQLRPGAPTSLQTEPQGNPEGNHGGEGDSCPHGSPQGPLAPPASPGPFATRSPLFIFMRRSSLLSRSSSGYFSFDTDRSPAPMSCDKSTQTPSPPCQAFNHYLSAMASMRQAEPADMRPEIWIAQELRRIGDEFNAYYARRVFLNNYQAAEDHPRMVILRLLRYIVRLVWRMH

How the values were obtained:
Assay in all cases: log2 fold change, soluble protein after heating vs DMSO (PISA); higher = thermal stabilisation; K562 lysate, 10 uM; active = over 0.2 and 3.5 SD of the protein, either way, in both replicates (recomputed)
[1] = compound: Cc1cn(-c2cc(NC(=O)c3ccc(C)c(Nc4nccc(-c5cccnc5)n4)c3)cc(C(F)(F)F)c2)cn1 [nilotinib]
Procedure, shortened: (§1)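 To prepare the extract, K562 pellets were dounce-homogenised in PBS pH 7.4 with 1 mM MgCl2, giving crude material at 1 mg/mL protein. This was treated with 10 μM compound for 30 min, then heated in aliquots for 3 min over 48°C-58°C before pooling and addition of NP-40 to 0.5% at 4°C. Centrifugation at 21,000xg for 90 min left soluble protein in the supernatant, which TMTpro 16plex LC-MS/MS quantified with equalised channel sums. Results are log-two fold changes in thermal stability compared with solvent controls, from duplicates.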

[2] = compound: Cc1nc(Nc2n[nH]c3c2CN(C(=O)N[C@H](CN(C)C)c2ccccc2)C3(C)C)c2sccc2n1
Procedure, shortened: as §1

[3] = compound: Cc1nc(Nc2ncc(C(=O)Nc3c(C)cccc3Cl)s2)cc(N2CCN(CCO)CC2)n1 [dasatinib]
Procedure, shortened: as §1

[4] = compound: Cc1ncc(-c2ccnc(Nc3ccc(S(C)(=O)=O)cc3)n2)n1C(C)C
Procedure, shortened: as §1

[5] = compound: Cn1cc(-c2ccc3c(c2)CCN3C(=O)Cc2cccc(C(F)(F)F)c2)c2c(N)ncnc21
Procedure, shortened: as §1

[6] = compound: Cn1cc(CNCC2CCN(c3ncc(C(=O)NO)cn3)CC2)c2ccccc21 [quisinostat]
Procedure, shortened: as §1

[7] = compound: Cn1cncc1[C@@](N)(c1ccc(Cl)cc1)c1ccc2c(c1)c(-c1cccc(Cl)c1)cc(=O)n2C [tipifarnib]
Procedure, shortened: as §1

[8] = compound: NC(=O)Nc1cc(-c2cccc(F)c2)sc1C(=O)N[C@H]1CCCNC1
Procedure, shortened: as §1

[9] = compound: NC1(c2ccc(-c3nc4ccn5c(=O)[nH]nc5c4cc3-c3ccccc3)cc2)CCC1
Procedure, shortened: as §1

[10] = compound: NC(=O)c1cnc(N[C@@H]2CCCC[C@@H]2N)nc1Nc1cccc(-n2nccn2)c1
Procedure, shortened: as §1

Measured: log2 fold change

BBS7 (UniProt Q8IWZ6)
inactive: [1] -0.039 | [2] 0.065 | [3] -0.061 | [4] -0.03 | [6] 0.06 | [7] -0.133 | [8] -0.044 | [9] 0.14
active: [5] 0.489

BTK isoform 2 (UniProt Q06187)
inactive: [1] 0.016 | [2] -0.002 | [4] 0.015 | [5] -0.005 | [6] -0.05 | [7] -0.021 | [10] 0.032 | [9] -0.049
active: [8] 0.294

BRAF (UniProt P15056)
inactive: [2] 0.011 | [4] -0.043 | [5] 0.002 | [6] -0.173 | [7] -0.006 | [8] 0.018 | [10] 0.007

BAP18 isoform 3 (UniProt Q8IXM2)
inactive: [1] 0.057 | [2] -0.017 | [4] -0.005 | [7] 0.262 | [10] 0.069 | [9] 0.03

BRWD1 (UniProt Q9NSI6)
inactive: [3] -0.195 | [5] 0.235 | [6] -0.094 | [8] 0.052

BPIFB1 (UniProt Q8TDL5)
inactive: [1] -0.015 | [2] 0.005 | [4] -0.004 | [7] -0.122

BORCS7 (UniProt Q96B45)
inactive: [1] -0.01 | [2] 0.146 | [4] 0.284 | [6] -0.038 | [7] 0.002 | [8] -0.012 | [10] -0.093 | [9] -0.072

BAZ2A (UniProt Q9UIF9)
inactive: [1] -0.138 | [2] 0.094 | [4] -0.028 | [6] 0.05 | [7] 0.077 | [8] 0.01 | [10] 0.113 | [9] 0.102

BPIFA1 (UniProt Q9NP55)
inactive: [1] 0.01 | [2] -0.06 | [3] -0.269 | [4] -0.013 | [5] 1.39 | [7] -0.155 | [9] 1.11

BRD9 (UniProt Q9H8M2)
inactive: [1] 0.201 | [2] -0.028 | [4] -0.22 | [7] -0.166 | [9] 0.074

BAG6 (UniProt F6WML8)
inactive: [9] -0.137

BEX2 isoform 2 (UniProt Q9BXY8)
inactive: [10] -0.024

4 records picked at random from the list so far:
BAG6 (UniProt F6WML8)
inactive: [9] -0.137

BAZ2A (UniProt Q9UIF9)
inactive: [1] -0.138 | [2] 0.094 | [4] -0.028 | [6] 0.05 | [7] 0.077 | [8] 0.01 | [10] 0.113 | [9] 0.102

BRD9 (UniProt Q9H8M2)
inactive: [1] 0.201 | [2] -0.028 | [4] -0.22 | [7] -0.166 | [9] 0.074

BPIFB1 (UniProt Q8TDL5)
inactive: [1] -0.015 | [2] 0.005 | [4] -0.004 | [7] -0.122

Additional results follow:

BDP1 (UniProt A6H8Y1)
inactive: [6] 0.034 | [8] 0.074

BBC3 (UniProt Q9BXH1)
inactive: [3] 0.007 | [5] 0.005 | [6] 0.024 | [8] -0.078 | [10] 0.015 | [9] -0.158

BTBD9 (UniProt Q96Q07)
inactive: [10] -0.33 | [9] -0.298

BICRA (UniProt Q9NZM4)
inactive: [3] 0.088 | [5] -0.1 | [6] 0.037 | [8] -0.004 | [10] 0.054 | [9] -0.382

B4GALT4 (UniProt O60513)
inactive: [3] -0.098 | [5] -0.015 | [9] -0.117

BAD (UniProt Q92934)
inactive: [3] -0.023 | [5] 0.021 | [6] 0.03 | [8] -0.017 | [9] 0.113

BIN3 (UniProt Q9NQY0)
inactive: [3] -0.143 | [5] -0.08 | [6] -0.049 | [8] 0.027 | [9] 0.145

BCL7A (UniProt Q4VC05)
inactive: [3] 0.064 | [5] -0.014 | [6] -0.093 | [8] 0.053 | [10] -0.196

BPNT1 (UniProt A6NF51)
inactive: [3] 0.129 | [5] -0.06 | [9] -0.028

BTG1 (UniProt P62324)
inactive: [6] -0.008 | [8] -0.012

BNIP2 (UniProt H7C096)
inactive: [10] -0.046

BIRC6, A0A3B3IUB9
inactive: [3] 0.046 | [5] 0.11 | [6] 0.167 | [8] -0.168 | [10] -0.019 | [9] -0.143

BAK1 (UniProt Q16611)
inactive: [3] -0.051 | [5] -0.027 | [6] 0.045 | [8] 0.038 | [10] -0.106 | [9] 0.013

BAIAP2 isoform 6 (UniProt Q9UQB8)
inactive: [6] 0.025 | [8] -0.017

BTG3 isoform 2 (UniProt Q14201)
inactive: [9] 0.279

BCL2L11 (UniProt O43521)
inactive: [6] -0.102 | [8] 0.119

BEND3 (UniProt Q5T5X7)
inactive: [3] -0.027 | [5] 0.056 | [6] -0.233 | [8] 0.159 | [10] 0.056 | [9] 0.014

BNIP3L (UniProt O60238)
inactive: [6] -0.193 | [8] -0.109

BCAS3 isoform 8 (UniProt Q9H6U6)
inactive: [3] -0.039 | [5] -0.078 | [6] -0.022 | [8] 0.031 | [10] -0.054 | [9] 0.023

BPTF (UniProt F5GXF5)
inactive: [9] -0.003

BANP isoform 7 (UniProt Q8N9N5)
inactive: [9] 0.06

BCORL1 isoform 3 (UniProt Q5H9F3)
inactive: [3] 0.039 | [5] -0.09 | [6] 0.035 | [8] 0.235 | [9] -0.091

BCL9 (UniProt O00512)
inactive: [6] -0.024 | [8] 0.034 | [9] -0.006

BTD isoform 3 (UniProt P43251)
inactive: [3] 0.121 | [5] 0.064 | [6] -0.003 | [8] 0.031 | [10] -0.016 | [9] 0.012

BHLHE40 (UniProt O14503)
inactive: [6] 0.025 | [8] 0.097 | [9] -0.109

BRMS1L (UniProt Q5PSV4)
inactive: [10] 0.025

BCL7C (UniProt Q8WUZ0)
inactive: [3] 0.034 | [5] -0.002 | [6] -0.044 | [8] 0.031 | [10] -0.03 | [9] -0.015

BTBD2 (UniProt Q9BX70)
inactive: [6] 0.054 | [8] -0.019 | [9] -0.117

BOD1 (UniProt Q96IK1)
inactive: [3] 0.326 | [5] 0.197 | [6] 0.097 | [8] -0.106 | [10] 0.156

B4GALT7 (UniProt Q9UBV7)
inactive: [6] 0.092 | [8] 0.031 | [9] -0.018

B4GALNT4 (UniProt Q76KP1)
inactive: [6] 0.01 | [8] 0.112
